Measurements taken from patent US20030129189A1, “Tumor necrosis factor-gamma” (priority 1994, published 2003).
Some entries share one result that the patent states for a list of compounds. No end group written: not given here.

System: bovine aortic endothelial cells (BAEC)
Assay: Caspase assay (pNA substrates)
Assay type: cell-based
Conditions: 20 hrs, TNF-alpha 100 ng/ml, TNF-gamma-beta batches 5 micrograms/ml

With KGDRLS [TNF-alpha] as the substance, how does the “increase in caspase 2 activity” value read?
Its value is over 10 fold.

What about the “increase in caspase 3 activity” value of the same substance?
The value was over 10 fold.

And the “increase in caspase 6 activity” value?
The value was over 5 fold.
